Results on 69 molecules are retold here after patent publication US20230365651A1.

These are yes or no findings as the source states them, for the method shown. Binding can be weak; no strength is given.

The target of the experiment is HLA-B*07:02 (human). Nature of the experiment: UV peptide exchange, anti-b2m ELISA. (In an ELISA, binding on a coated surface is turned into a signal by an enzyme label.)
In the case of SPVPVTSLF [… (SEQ ID NO: 362)], the binding entry is “binds”.

As for LPSVSGVKTTF [… (SEQ ID NO: 343)], the binding result was “binds”.

On to LPLGTSMTF [… (SEQ ID NO: 342)], for which the binding result is recorded as “binds”.

Take SPAPLKLSRTPA [… (SEQ ID NO: 388)]: the binding result is “binds”.

Turning to SPSPVPTTL [… (SEQ ID NO: 357)], the binding result was “binds”.

On to TAKTPDATF [… (SEQ ID NO: 363)], for which the binding entry is reported as “binds”.

For the molecule SPTHVTQSL [… (SEQ ID NO: 361)], the binding result is recorded as “binds”.

Consider FPHSEMTTV [… (SEQ ID NO: 369)], for which the binding result is reported as “binds”.

On to FPHSEMTTL [… (SEQ ID NO: 332)], for which the binding result is “binds”.

As to TPTKETVSL [… (SEQ ID NO: 383)], the binding entry is “binds”.

With RPRSPAGQVA [… (SEQ ID NO: 376)], the binding entry is “binds”.

As to LPAGTTGSLVF [… (SEQ ID NO: 339)], the binding entry is “binds”.

Take SPSPVTSTL [… (SEQ ID NO: 358)]: the binding result is given as “binds”.

On to IPRNPPPTLL [… (SEQ ID NO: 372)], for which the binding result is given as “binds”.

For the molecule GPFPLVYVL [… (SEQ ID NO: 379)], the binding entry is on record as “binds”.

TPSVVTEGF [… (SEQ ID NO: 367)]: the binding entry is given as “binds”.

With SPMHDRWTF [… (SEQ ID NO: 382)], the binding result is “binds”.

In the case of NPDLRRNVL [… (SEQ ID NO: 390)], the binding result is listed as “binds”.

For LPLDTSTTL [… (SEQ ID NO: 341)], the binding result was “binds”.

For FPFNPLDF [FPFNPLDF (SEQ ID NO: 386)], the binding result was “binds”.

As for RPRSPAGQVAAA [… (SEQ ID NO: 377)], the binding entry is reported as “binds”.

Consider MPSLSEAMTSF [… (SEQ ID NO: 349)], for which the binding result is “binds”.

Turning to SPAMTTPSL [… (SEQ ID NO: 353)], the binding entry is on record as “binds”.

In the case of APLKLSRTPA [… (SEQ ID NO: 387)], the binding entry is “binds”.

LYVDGFTHW [… (SEQ ID NO: 371)]: the binding result is listed as “binds”.

On to RPRALRDLRIL [… (SEQ ID NO: 373)], for which the binding entry is reported as “binds”.

As for GPRNAQRVL [… (SEQ ID NO: 325)], the binding result is “binds”.

For the molecule VPYRVVGL [VPYRVVGL (SEQ ID NO: 324)], the binding entry is “binds”.

For FPHPEMTTSM [… (SEQ ID NO: 331)], the binding result is listed as “binds”.

With TPLATTQRFTY [… (SEQ ID NO: 365)], the binding entry is “binds”.

In the case of SPLVTSHIM [… (SEQ ID NO: 355)], the binding result was “binds”.

As for MPLTTGSQGM [… (SEQ ID NO: 347)], the binding result is reported as “binds”.

Consider AAASPLLLL [… (SEQ ID NO: 375)], for which the binding entry was “binds”.

For FPHSEMTTVM [… (SEQ ID NO: 333)], the binding entry is on record as “binds”.

Regarding VPTPVFPTM [… (SEQ ID NO: 368)], the binding result is “binds”.

For SPALHIGSV [… (SEQ ID NO: 385)], the binding result was “binds”.

As for MPNSAIPFSM [… (SEQ ID NO: 348)], the binding result is given as “binds”.

As for HPDPVGPGL [… (SEQ ID NO: 335)], the binding result is “binds”.

With NPIGDTGVKF [… (SEQ ID NO: 374)], the binding entry was “binds”.

In the case of SPSTIKLTM [… (SEQ ID NO: 359)], the binding result is recorded as “binds”.

PGGTRQSL [PGGTRQSL (SEQ ID NO: 370)]: the binding entry is reported as “binds”.

For KPIESTLVA [… (SEQ ID NO: 392)], the binding entry is on record as “binds”.

Turning to APSTPRITTF [… (SEQ ID NO: 391)], the binding entry is “binds”.

Take FPYSEVTTL [… (SEQ ID NO: 334)]: the binding result is on record as “binds”.

For the molecule HVTKTQATF [… (SEQ ID NO: 338)], the binding result is reported as “binds”.

As to LPEISTRTM [… (SEQ ID NO: 340)], the binding result was “binds”.

As to SPGAQRTFFQL [… (SEQ ID NO: 389)], the binding entry is on record as “binds”.

For HPVETSSAL [… (SEQ ID NO: 337)], the binding result is listed as “binds”.

With FPAMTESGGMIL [… (SEQ ID NO: 329)], the binding result is given as “binds”.

For the molecule SPLPVTSLL [… (SEQ ID NO: 354)], the binding entry is reported as “binds”.

With TPLATTQRF [… (SEQ ID NO: 364)], the binding result was “binds”.

Consider LPWDTSTTLF [… (SEQ ID NO: 346)], for which the binding entry was “binds”.

Take SPAETSTNM [… (SEQ ID NO: 352)]: the binding entry was “binds”.

As to LPEQTPLAF [… (SEQ ID NO: 381)], the binding entry is reported as “binds”.

As for VPSEIDAAF [… (SEQ ID NO: 326)], the binding entry is “binds”.

For the molecule SPLPVTSLI [… (SEQ ID NO: 327)], the binding result is “binds”.

Turning to EPVTSSLPNF [… (SEQ ID NO: 328)], the binding result is “binds”.

For the molecule FPFVTGSTEM [… (SEQ ID NO: 330)], the binding entry is reported as “binds”.

Consider SPNEFYFTV [… (SEQ ID NO: 356)], for which the binding result is “binds”.

Consider HPKTESATPAAY [… (SEQ ID NO: 336)], for which the binding result is reported as “binds”.

In the case of SPSVSSNTY [… (SEQ ID NO: 360)], the binding entry is reported as “binds”.

As for NVLTSTPAF [… (SEQ ID NO: 351)], the binding entry is given as “binds”.

RPMPNLRSV [… (SEQ ID NO: 323)]: the binding entry was “binds”.

For LPTQTTSSL [… (SEQ ID NO: 344)], the binding entry is reported as “binds”.

On to YPGLRGSPM [… (SEQ ID NO: 384)], for which the binding result is listed as “binds”.

Consider RPRSPAGQVAA [… (SEQ ID NO: 378)], for which the binding result was “binds”.

In the case of IPTYGRTF [IPTYGRTF (SEQ ID NO: 380)], the binding result was “binds”.

NPSSTTTEF [… (SEQ ID NO: 350)]: the binding result is recorded as “binds”.

As for LPTSESLVSF [… (SEQ ID NO: 345)], the binding result is given as “binds”.
